The campaign covered roughly 2,100 compounds. About 1,800 (86%) were called active. The set was probably picked from earlier hits. Inconclusive results, whose numbers are uncertain, are shown with a selection of clear calls. How the calls were made is not given here. Potencies of inconclusive entries are doubtful fits and often do not repeat.
Test: counter-screen: blocks GFP chromophore formation, dose response, counter-screen, biochemical, fluorescence, homogeneous (AID 434968)
Conditions: cell-free GFP chromophore formation; activity change, negative = inhibition: at 38 µM (top of the series)

| Compound | EC50 | activity change, negative = inhibition |
| --- | --- | --- |
| COc1ccc(C(C(=O)NC2CCCCC2)N(C(=O)CCl)c2ccc(Cl)cc2)cc1 (stereo unspecified) | inconclusive: 0.409 µM |  |
| CCc1ccc(NC(=O)CSc2ccc(-c3sc(C)nc3C)nn2)cc1 | inactive: > 38 µM |  |
| CCN(C(=O)CSc1ncccc1C(=O)Oc1cccc([N+](=O)[O-])c1)c1cccc(C)c1 | inconclusive: 7.92 µM |  |
| Cc1nc(Nc2ccc(O)cc2)c2c3c(sc2n1)CCCC3 | inactive: > 38 µM |  |
| CC1=NN(C)C(=O)C1Cc1c(F)cccc1Cl (stereo unspecified) | active: 16.8 µM |  |
| CCCCn1c(NS(=O)(=O)c2ccccc2)c(S(=O)(=O)c2ccc(C)cc2)c2nc3ccccc3nc21 | inconclusive: > 38 µM |  |
| COc1ccc(C(C(=O)NC2CCCCC2)N(C(=O)CCl)c2cccc(Cl)c2)cc1 (stereo unspecified) | inconclusive: 0.152 µM |  |
| CC(NC(=O)Cn1ncc(Cl)c(Cl)c1=O)C12CC3CC(CC(C3)C1)C2 (stereo unspecified) |  | inconclusive: -51.7% |
| O=c1cc(N=Nc2ccc(Cl)cc2)[nH]c(=O)[nH]1 | inconclusive: 25.1 µM |  |
| CCOC(=O)C(CC)Sc1ncnc2c1nnn2-c1ccc(F)cc1 (stereo unspecified) | inactive: > 38 µM |  |
| COC(=O)c1ccccc1NC1=C/C(=N\S(=O)(=O)c2ccc(C(=O)O)cc2)c2ccccc2C1=O |  | inconclusive: 41.2% |
| Cc1ccc(N2C(=O)C(Cl)=C(N3CCOCC3)C2=O)cc1Cl | inconclusive: > 38 µM |  |
| COc1cccc(-n2nc(C#N)c(Cl)cc2=O)c1 | active: 21.1 µM |  |
| COc1ccc(N/N=C(\C#N)C(=N)SCc2ccccc2)cc1 | active: 24.1 µM |  |
| CCCCN(C(=O)c1cccc2c(=O)c(C)c(-c3ccccc3)oc12)c1ccccc1 | inactive: > 38 µM |  |
| COc1ccc(-c2csc(Nc3ccc(O)cc3)n2)cc1 | inactive: > 38 µM |  |
| CCCCn1c(NC(=O)c2ccco2)c(S(=O)(=O)c2ccc(C)cc2)c2nc3ccccc3nc21 | inconclusive: > 38 µM |  |
| O=c1[nH]c(Nc2ccccc2)cc2ccccc12 | inconclusive: 10.4 µM |  |
| CC1=NN(Cc2ccccc2)C(=O)/C1=C\c1ccc(N(C)C)cc1 | inconclusive: 116 µM |  |
| O=C(O)c1ccc(N2C(=O)/C(=C/c3ccc(-c4ccc([N+](=O)[O-])cc4)o3)C=C2c2ccccc2)cc1 | inactive: > 38 µM |  |
| CCCCn1c(NC(=O)c2ccc(Br)o2)c(S(=O)(=O)c2ccccc2)c2nc3ccccc3nc21 | inconclusive: > 38 µM |  |
| CC(C)[C@H](NC(=O)Nc1ccc(Oc2ccccc2)cc1)C(=O)O | inactive: > 38 µM |  |
| Cc1ccccc1Nc1cc2ccccc2c(=O)[nH]1 | inconclusive: 1.12 µM |  |
| COc1cc2c(cc1OC)C1(Nc3c-2c(Cc2ccccc2)nn3-c2ccccc2)C(=O)Nc2ccccc21 (stereo unspecified) | inactive: > 38 µM |  |
| CCN(CCN(C)C)C(=O)c1ccc2c(c1NCCO)C(=O)c1ccccc1C2=O | inconclusive: < 0.018 µM |  |
| CCCc1[nH][nH]c(=O)c1C(c1ccc(Cl)cc1)C(C#N)C#N (stereo unspecified) | active: 17.7 µM |  |

Arranged by formula weight (rising): part of the list above.

| Compound | EC50 | activity change, negative = inhibition |
| --- | --- | --- |
| O=c1[nH]c(Nc2ccccc2)cc2ccccc12 | inconclusive: 10.4 µM |  |
| CC1=NN(C)C(=O)C1Cc1c(F)cccc1Cl (stereo unspecified) | active: 16.8 µM |  |
| CCN(CCN(C)C)C(=O)c1ccc2c(c1NCCO)C(=O)c1ccccc1C2=O | inconclusive: < 0.018 µM |  |

Reference: PubChem BioAssay AID434968 (Broad Institute, 2010)
